Values from PubChem BioAssay AID1159584 (Peter MacCallum Cancer Centre, 2016)
Aim: 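Genes that CDH1-null MCF10A cells selectively depend on to survive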 (primary screen). System: human MCF10A breast epithelial cells, parental and CDH1-null. Reagents: siRNA against human genes. Read-out: 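Cell viability by CellTiter-Glo ATP luminescence, each line scaled to the mean of mock wells across plates, then CDH1-null over parental ratio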. Scale: CDH1-null / parental viability ratio: higher = CDH1-null cells survive relatively better than parental.
Here is an unselected part of about 18,000 deposited reagents. Not all columns of the deposit are shown. No sequences are given here. The record does not give: the amount of reagent, the time to read-out.

For PPIAL4A, what does the deposit list?
CDH1-null / parental viability ratio: 1.05

What is on record for C8B?
CDH1-null / parental viability ratio: 0.99

How did the screen score C11orf24?
CDH1-null / parental viability ratio: 1.14

For SARNP, how do the results read?
CDH1-null / parental viability ratio: 1.14

What is on record for ITGAE?
CDH1-null / parental viability ratio: 0.98

Which result is listed for GRK5?
CDH1-null / parental viability ratio: 1.18

With ARHGEF5, how do the results read?
CDH1-null / parental viability ratio: 0.76

What is on record for MACIR?
CDH1-null / parental viability ratio: 0.84

With ZFP69, what does the deposit list?
CDH1-null / parental viability ratio: 0.92

Which result is listed for C16orf54?
CDH1-null / parental viability ratio: 1.3

For CKS2, what was measured?
CDH1-null / parental viability ratio: 0.96

Which result is listed for SFTPC?
CDH1-null / parental viability ratio: 1.07

For ADRB1, how do the results read?
CDH1-null / parental viability ratio: 1.4

How did the screen score PAK3?
CDH1-null / parental viability ratio: 0.89

Which result is listed for GMCL1?
CDH1-null / parental viability ratio: 0.89

With ATOH7, what was measured?
CDH1-null / parental viability ratio: 0.76

What is on record for UNC5CL?
CDH1-null / parental viability ratio: 0.94

For MAP3K15, what does the deposit list?
CDH1-null / parental viability ratio: 1.07

How did the screen score KLHDC2?
CDH1-null / parental viability ratio: 0.94

What is on record for TCF7L1?
CDH1-null / parental viability ratio: 1.23

For ZNF101, how do the results read?
CDH1-null / parental viability ratio: 1.03

What is on record for SEMA6D?
CDH1-null / parental viability ratio: 1.34

Which result is listed for PIGB?
CDH1-null / parental viability ratio: 1.1

For PRLHR, how do the results read?
CDH1-null / parental viability ratio: 1.4
